The test in a line: qHTS Assay for Lipid Storage Modulators in Drosophila S3 Cells.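 On cell number change: cells counted by Cell Tracker Red CMTPX staining in the red channel.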 The following applies: BODIPY lipid droplet fluorescence, 18-24 h; for cell number change: measured here: cell count max response, cells fed with added oleic acid. In short, it runs like this:
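Drosophila S3 cells got compounds at several concentrations plus oleic acid (400 uM solution). Laser-scanning cytometry with 488 nm excitation read lipid droplets at 500-530 nm and cells at 575-640 nm. Percent activity was relative to 20 uM Triacsin C.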
(Quantitative high-throughput screening tests each substance at several concentrations.)

Setting [1] is: measured here: lipid fluorescence (Fed channel) AC50, cells fed with added oleic acid.
The mark [2] stands for this setting: measured here: cell number channel AC50, cells fed with added oleic acid.

SMILES strings stand for the structures. The list shows a part of the results. These are further read-outs of the screen, such as a control signal, another cell line or another target. No call is given for them. The list favours compounds with an active or inconclusive main result. Words in brackets tell the shape of the fitted curve; partial curves, single points and poor fits give uncertain potencies.

The term AC50 denotes the concentration giving half of the maximal activity seen. Lower therefore signals activity at low concentration. For `CC1CCN(C(=S)c2cn(Cc3ccc(F)cc3)c3ccccc23)CC1`, the cell number change came to 26.9%. Besides, the AC50 under setting [1] was 29.1 µM [rising, single point].

Regarding `Cc1[nH]c2ccccc2c1C(=O)CSc1ccc(Cl)cc1`, the cell number change is -4.74%.

For the molecule `CC(=O)Nc1ccc(S(=O)(=O)N2CCN(c3cc4c(cc3[N+](=O)[O-])n(C)c(=O)n4C)CC2)cc1`, the cell number change turned out to be 5.16%. Further, the AC50 under setting [1] was 29.1 µM [rising, single point].

As for `NS(=O)(=O)c1ccc(CCNC(=O)CN2CCN(c3cccc(Cl)c3)CC2)cc1`, the cell number change worked out at 23.5%. Also, the AC50 under setting [2] is 6.51 µM [rising, partial curve, poor fit]. Also, the AC50 under setting [1] was 23.1 µM [rising, single point].

Consider `CCC(C)NC(=O)c1ccc(C)c(NC(=O)C2=C(C)OCCS2)c1` (centres undefined), for which the AC50 under setting [2] was 0.82 µM [rising, full curve, poor fit].

Regarding `COc1ccc(C2c3c(-c4ccccc4O)n[nH]c3C(=O)N2Cc2ccco2)cc1OC` (centres undefined), the cell number change is 38.5%. The AC50 under setting [2] is 0.291 µM [rising, full curve].

For the molecule `CC(=O)Nc1sc(N/N=C/c2ccccc2F)nc1-c1ccc(C)cc1`, the cell number change was found to be 21.1%. Under setting [2], the AC50 was 4.61 µM [rising, partial curve, poor fit]. Under setting [1], the AC50 is 0.092 µM [rising, full curve, poor fit].

As for `CCCCN(C(C)=O)c1c(N)n(CCC)c(=O)n(CC(=O)Nc2cc(Cl)cc(Cl)c2)c1=O`, the cell number change is -22.7%. Moreover, the AC50 under setting [1] is 2.91 µM [falling, full curve].

On to `Nc1nc(Cn2nnc(-c3ccccc3Cl)n2)nc(N2CCOCC2)n1`, for which the cell number change was -21.5%. Also, the AC50 under setting [1] was 0.651 µM [rising, full curve].

In the case of `O=c1[nH]c2cc3c(cc2cc1CN(CC1CCCO1)S(=O)(=O)c1ccc(Cl)cc1)OCCO3` (centres undefined), the cell number change was -4.67%. Moreover, the AC50 under setting [1] was 6.51 µM [rising, single point].

Turning to `Cc1ccc(F)cc1NC(=O)CCc1c(C)nn(-c2ccc(N3CCCCC3)nn2)c1C`, the cell number change is -76.6%. The AC50 under setting [2] was 29.1 µM [falling, single point]. Besides, the AC50 under setting [1] was 29.1 µM [falling, single point].

On to `CCOC(=O)c1c(NC(=O)c2ccccc2Cl)sc2c1CCc1ccccc1-2`, for which the cell number change is 23.2%. In addition, the AC50 under setting [1] is 3.66 µM [rising, partial curve].

Take `CCc1ccc(Oc2nnnn2-c2ccc(C(N)=O)cc2)cc1`: the cell number change stood at 10.5%. Also, the AC50 under setting [1] is 0.103 µM [rising, full curve, poor fit].

As for `O=C(NC1CC1)c1cc2cc3ccccc3nc2s1`, the cell number change was -9.72%.

As for `COc1ccccc1S(=O)(=O)N1CCn2cccc2C1C` (centres undefined), the cell number change was -3.52%. Also, under setting [1], the AC50 is 2.91 µM [falling, single point].

Turning to `CC(C)NC(=S)N/N=C/C1=CCC2CC1C2(C)C` (centres undefined), the cell number change was -44.9%. Besides, the AC50 under setting [2] was 16.4 µM [falling, partial curve].

Take `COc1ccc(C(=O)N(CCc2ccccc2)Cc2ccccc2)c(OC)n1`: the cell number change came to 9.8%. In addition, the AC50 under setting [1] was 5.17 µM [falling, full curve, poor fit].

On to `CC(C)OC(=O)/C(C#N)=C/c1c[nH]c2ccccc12`, for which the cell number change is -52.2%. Further, the AC50 under setting [2] was 14.6 µM [falling, single point]. The AC50 under setting [1] is 16.4 µM [falling, partial curve].

As for `CCn1c(C)nnc1SCC(=O)Nc1ccc(Cl)cc1`, the cell number change stood at 11.2%. Moreover, under setting [1], the AC50 was 18.4 µM [rising, single point].

For `CC(=O)NC(=S)Nc1ccc2oc(=O)ccc2c1`, the cell number change is 12.9%. The AC50 under setting [1] is 2.06 µM [rising, single point].

In the case of `O=C(CSc1oc(-c2ccco2)nc1S(=O)(=O)c1ccc(Cl)cc1)NCC1CCCO1` (centres undefined), the cell number change amounted to 49.2%. For the same molecule, under setting [2], the AC50 was 0.259 µM [rising, full curve, poor fit]. The AC50 under setting [1] was 0.13 µM [rising, full curve, poor fit].

With `CC(=O)NNC(=O)c1sc(=S)n(C)c1C`, under setting [1], the AC50 is 25.9 µM [falling, single point].

On to `CCCC1=C(C(=O)OCC)C(c2cc(Cl)cc(OC)c2OCC(=O)OCC)NC(=O)N1` (centres undefined), for which the cell number change was found to be 7.08%. Under setting [1], the AC50 is 4.11 µM [rising, single point].

On to `COc1cc(S(=O)(=O)N2CCN(C(=O)c3ccccc3F)CC2)c(OC)cc1NC(C)=O`, for which the cell number change was -17.1%.

Consider `CNC(=S)NNC(=O)c1cc(C(C)(C)C)nn1Cc1ccc(F)cc1`, for which the cell number change stood at 13.3%. Further, the AC50 under setting [1] was 0.259 µM [rising, full curve, poor fit].

As to `Cc1ccc(S(=O)(=O)N2CCCC2CNC(=O)c2ccc3c(c2)OCO3)cc1` (centres undefined), the cell number change was -25.7%. Also, the AC50 under setting [1] is 0.0164 µM [falling, full curve, poor fit].

Consider `Nc1c(Cl)c(Cl)nc(C(=O)OCC(=O)N2CCCC2=O)c1Cl`, for which the AC50 under setting [1] is 6.51 µM [rising, single point].

Consider `N=c1c(C(=O)NCC2CCCO2)cc2c(=O)n3ccccc3nc2n1C1CCCC1` (centres undefined), for which the cell number change is 2.7%. In addition, under setting [1], the AC50 is 29.1 µM [rising, single point].

With `Cc1c(NC(=S)NC(NC(=O)C(C)C)C(Cl)(Cl)Cl)c(=O)n(-c2ccccc2)n1C` (centres undefined), the cell number change is -6.8%. Moreover, the AC50 under setting [1] is 0.0326 µM [falling, full curve, poor fit].

With `CN(CCO)c1cc(N2CCC3(CC2)OCCO3)c2nonc2c1[N+](=O)[O-]`, the cell number change is -39.9%. Further, the AC50 under setting [2] is 16.4 µM [falling, partial curve, poor fit]. The AC50 under setting [1] is 4.11 µM [falling, full curve, poor fit].

For the molecule `CCn1c(/C=C/c2ccc([N+](=O)[O-])o2)nc2ccccc2c1=O`, the cell number change is -31.7%. Further, the AC50 under setting [2] was 2.59 µM [falling, full curve, poor fit]. In addition, the AC50 under setting [1] was 1.64 µM [falling, partial curve].

Turning to `COc1cc(CNC2CCCC2)cc(Cl)c1OCc1ccc(F)cc1`, the cell number change was -22.4%. Moreover, under setting [1], the AC50 is 1.84 µM [falling, partial curve].

For the molecule `CC(=O)c1cc(OC(=O)c2ccncc2)ccc1OC(=O)c1ccncc1`, the cell number change is -104%. In addition, the AC50 under setting [2] is 29.1 µM [falling, single point].

Consider `CC1CC(C)CN(S(=O)(=O)c2ccc(C(=O)N3CC(C)OC(C)C3)cc2)C1` (centres undefined), for which the cell number change worked out at 7.92%. Besides, the AC50 under setting [2] was 4.11 µM [rising, partial curve].

For the molecule `O=c1c2cc(Br)cc(Br)c2oc2nc3n(c(=O)c12)CCCS3`, the cell number change came to 1.07%.

For `CCOc1ccc(CNC(=O)CCS(=O)(=O)Cc2ccccc2C)cc1OC`, the cell number change was 1.08%. In addition, the half-maximal activity concentration (AC50) under setting [1] was 0.651 µM [falling, full curve].

For the molecule `COc1cccc(OC)c1C(=O)OCCCOC(=O)c1c(OC)cccc1OC`, the cell number change was found to be 11.8%. Besides, under setting [1], the AC50 is 29.1 µM [rising, single point].

These data come from PubChem BioAssay AID2685 (National Center for Advancing Translational Sciences (NCATS), 2010).
